Values from PubChem BioAssay AID504808 (Drosophila RNAi Screening Center, 2011).

- Purpose: 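Fly genes required to hold E2F transcription in check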 (primary screen)
- Cells: Drosophila S2 cells
- Knock-down reagent: long dsRNA against Drosophila genes
- Measurement: 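Dual luciferase plate measurements; E2F-specific signal taken as firefly over Renilla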
- Reading the numbers: E2F firefly: higher = more E2F reporter activity; Renilla normaliser: higher = more normaliser reporter signal
- Active means: 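a knock-down counted as active when the firefly/Renilla E2F signal rose above 50%, a threshold chosen arbitrarily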
The screen tested about 21,000 reagents; below is a random part of those that have a named target and a result. In the full data, 18 (0.084%) were called active. 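Raw counts without plate normalisation, one of two replicates; the ratio scores behind the calls were not deposited.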 Reagent sequences are not shown. Not stated in the record: the amount of reagent, the time to read-out.

What is on record for Lst8?
E2F firefly, rep 1: 7778; Renilla normaliser, rep 1: 704; call: inactive

Which result is listed for CG18539?
E2F firefly, rep 1: 1.45e5; Renilla normaliser, rep 1: 4511; call: inactive

Which result is listed for PPO3 (Prophenoloxidase 3)?
E2F firefly, rep 1: 85105; Renilla normaliser, rep 1: 3729; call: inactive

What did the screen give for CG7222?
E2F firefly, rep 1: 3350; Renilla normaliser, rep 1: 115; call: inactive

What is on record for CG34050 (retired record)?
E2F firefly, rep 1: 82828; Renilla normaliser, rep 1: 3437; call: inactive

What is on record for REPTOR (Repressed by TOR)?
E2F firefly, rep 1: 67483; Renilla normaliser, rep 1: 3250; call: inactive

What did the screen give for Myc?
E2F firefly, rep 1: 70508; Renilla normaliser, rep 1: 4203; call: inactive

For CG15093, how do the results read?
E2F firefly, rep 1: 74977; Renilla normaliser, rep 1: 3967; call: inactive

For GstZ2 (Glutathione S transferase Z2), what was measured?
E2F firefly, rep 1: 54290; Renilla normaliser, rep 1: 3144; call: inactive

For eIF3g1 (eukaryotic translation initiation factor 3 subunit g1), what was measured?
E2F firefly, rep 1: 1303; Renilla normaliser, rep 1: 976; call: inactive

With AIF (Apoptosis inducing factor), what does the deposit list?
E2F firefly, rep 1: 83129; Renilla normaliser, rep 1: 3360; call: inactive

With bdl (borderless), what does the deposit list?
E2F firefly, rep 1: 87451; Renilla normaliser, rep 1: 3741; call: inactive

For Tmem131 (Transmembrane protein 131), how do the results read?
E2F firefly, rep 1: 75939; Renilla normaliser, rep 1: 3108; call: inactive

How did the screen score dgt4 (dim gamma-tubulin 4)?
E2F firefly, rep 1: 1.25e5; Renilla normaliser, rep 1: 5287; call: inactive

With Npc2f (Niemann-Pick type C-2f), how do the results read?
E2F firefly, rep 1: 77646; Renilla normaliser, rep 1: 3773; call: inactive

For SPE (Spatzle-Processing Enzyme), how do the results read?
E2F firefly, rep 1: 75621; Renilla normaliser, rep 1: 3492; call: inactive

What did the screen give for CG14304?
E2F firefly, rep 1: 1.03e5; Renilla normaliser, rep 1: 5574; call: inactive

What is on record for eg (eagle)?
E2F firefly, rep 1: 1.35e5; Renilla normaliser, rep 1: 6385; call: inactive

For CG5084, what was measured?
E2F firefly, rep 1: 1.39e5; Renilla normaliser, rep 1: 5129; call: inactive

With CG11529, how do the results read?
E2F firefly, rep 1: 1.15e5; Renilla normaliser, rep 1: 7292; call: inactive

For CG12992, what does the deposit list?
E2F firefly, rep 1: 1.45e5; Renilla normaliser, rep 1: 6042; call: inactive

With Jwa, how do the results read?
E2F firefly, rep 1: 86806; Renilla normaliser, rep 1: 3435; call: inactive

How did the screen score Tollo?
E2F firefly, rep 1: 1.61e5; Renilla normaliser, rep 1: 7803; call: inactive

What is on record for CG13581?
E2F firefly, rep 1: 1.16e5; Renilla normaliser, rep 1: 4939; call: inactive

What is on record for CG32679?
E2F firefly, rep 1: 85361; Renilla normaliser, rep 1: 2708; call: inactive

How did the screen score CG4704?
E2F firefly, rep 1: 99694; Renilla normaliser, rep 1: 5347; call: inactive

What did the screen give for GluRIIC (Glutamate receptor IIC)?
E2F firefly, rep 1: 85939; Renilla normaliser, rep 1: 3218; call: inactive

With CG7728, how do the results read?
E2F firefly, rep 1: 65757; Renilla normaliser, rep 1: 3605; call: inactive
